Measurements from article PMC9368039.
Results are given in words; binding and its absence hold for the method and conditions named. Binding seen in cells or lysates may run through a third protein. Some entries that bind do so weakly or less than the wild type.

Chains of the proteins cited; added tags and fusions are not shown.
UniProt P63158: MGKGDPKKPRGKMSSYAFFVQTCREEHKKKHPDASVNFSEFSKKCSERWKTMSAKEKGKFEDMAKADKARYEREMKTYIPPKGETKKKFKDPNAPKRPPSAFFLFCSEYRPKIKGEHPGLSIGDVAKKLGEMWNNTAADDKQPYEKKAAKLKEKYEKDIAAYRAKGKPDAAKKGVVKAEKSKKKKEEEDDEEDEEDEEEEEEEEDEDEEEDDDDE

Molecular target: T1, nucleotide-binding oligomerization domain-containing 2 (NOD2) (mouse (endogenous in BV2)) (UniProt Q8K3Z0)
T1 sequence: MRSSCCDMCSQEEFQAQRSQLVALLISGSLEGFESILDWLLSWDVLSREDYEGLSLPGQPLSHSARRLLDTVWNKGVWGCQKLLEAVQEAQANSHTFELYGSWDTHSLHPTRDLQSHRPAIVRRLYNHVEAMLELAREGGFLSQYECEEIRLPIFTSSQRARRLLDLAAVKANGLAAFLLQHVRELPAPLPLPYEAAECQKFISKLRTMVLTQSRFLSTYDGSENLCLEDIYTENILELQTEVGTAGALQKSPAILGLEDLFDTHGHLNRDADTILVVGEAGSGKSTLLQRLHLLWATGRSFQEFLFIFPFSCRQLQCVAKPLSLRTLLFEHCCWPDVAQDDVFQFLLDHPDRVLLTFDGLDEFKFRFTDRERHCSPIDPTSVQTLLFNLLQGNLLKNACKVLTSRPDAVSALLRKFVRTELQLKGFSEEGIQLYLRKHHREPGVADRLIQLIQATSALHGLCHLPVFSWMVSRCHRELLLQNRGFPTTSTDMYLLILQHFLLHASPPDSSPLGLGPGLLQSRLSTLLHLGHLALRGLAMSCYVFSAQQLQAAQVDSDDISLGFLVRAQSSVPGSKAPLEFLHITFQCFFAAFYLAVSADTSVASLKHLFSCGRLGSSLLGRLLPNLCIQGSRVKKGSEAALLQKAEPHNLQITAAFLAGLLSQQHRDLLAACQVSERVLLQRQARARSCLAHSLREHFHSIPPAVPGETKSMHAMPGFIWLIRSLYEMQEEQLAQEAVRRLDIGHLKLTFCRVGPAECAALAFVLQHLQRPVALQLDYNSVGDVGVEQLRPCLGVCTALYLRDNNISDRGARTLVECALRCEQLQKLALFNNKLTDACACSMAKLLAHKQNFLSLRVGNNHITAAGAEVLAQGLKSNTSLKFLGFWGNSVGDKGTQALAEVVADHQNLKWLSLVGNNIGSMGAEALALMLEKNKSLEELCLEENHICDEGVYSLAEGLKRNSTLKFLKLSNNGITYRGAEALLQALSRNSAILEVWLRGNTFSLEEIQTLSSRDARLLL
Assay: co-IP; lysates (0.5-1 mg total protein) of BV2 cells treated with LPS (100 ng/mL) for 3, 6, 9, 12 and 18 h; immunoprecipitated with anti-HMGB1 or anti-NOD2 at 4 °C overnight on protein A-Sepharose beads; immunoblot with anti-HMGB1, anti-NOD2 or anti-ATG16

- binding: binds
Substance: high mobility group box 1 (HMGB1) (from UniProt P63158 1-215)
